The values that follow come from article doi:10.1101/2023.06.19.545549.

The chains behind the UniProt entries cited, without tags or fusion partners.
UniProt P95334: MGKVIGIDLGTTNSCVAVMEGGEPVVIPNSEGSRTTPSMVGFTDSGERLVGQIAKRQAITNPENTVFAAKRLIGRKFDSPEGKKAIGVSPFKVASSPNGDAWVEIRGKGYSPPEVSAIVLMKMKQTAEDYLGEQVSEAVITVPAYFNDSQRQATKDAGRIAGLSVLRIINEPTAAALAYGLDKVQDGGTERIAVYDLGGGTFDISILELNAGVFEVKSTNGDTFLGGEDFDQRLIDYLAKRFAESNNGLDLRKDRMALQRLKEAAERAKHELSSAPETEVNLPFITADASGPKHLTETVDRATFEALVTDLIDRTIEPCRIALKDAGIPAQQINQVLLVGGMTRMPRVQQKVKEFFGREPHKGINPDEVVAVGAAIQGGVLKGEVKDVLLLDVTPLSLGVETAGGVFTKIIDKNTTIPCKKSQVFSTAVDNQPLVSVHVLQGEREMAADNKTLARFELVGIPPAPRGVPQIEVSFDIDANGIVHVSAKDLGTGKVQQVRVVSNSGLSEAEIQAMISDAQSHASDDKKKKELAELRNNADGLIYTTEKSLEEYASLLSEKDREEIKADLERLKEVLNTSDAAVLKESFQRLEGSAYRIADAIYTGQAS

These are yes or no findings as the source states them, for the method shown. Binding seen in cells or lysates may run through a third protein. A yes stands for co-enrichment or nearness to the bait. Other partners may have been found.

In experiment [1] the target is MxDnaK2 (MXAN_6671) (Myxococcus xanthus DK1622 (endogenous in DK1622)) (UniProt P95334). Put plainly: affinity purification with mass spectrometry.
Experiment [2] addresses MxDnaK1 (MXAN_3192) (Myxococcus xanthus DK1622 (endogenous in DK1622)). Put plainly: affinity purification with mass spectrometry.

B1: MXAN_6672 (protein, UniProt P95333 1-255)
chain: MTVIEVEASGPSTPVEAEASASPADTTSPPSDAEATPSEDVAALRQEVESLKAQLEFSQAKGRETMERLREAHERAKEAQERTVRHAADLENYRKRAQKEKEEVQRFGSEKLLKDLLPVMDNLDRAIDAAAKSPDLDSFEKGVAMTRKSFEDALGRHGVKGFSAKGQVFDPRVHEAIQQVETADVPAGHVAYEVVRGFYLNERLVRPAMVVVARAPAEPVAAAEPPAVAEPATATTDTEAPAAPAQSENSSGGSQ
For B1, the binding entry in experiment [1] and in experiment [2] was “binds” throughout.
